Reference: the supplement of paper PMC12067093, “Discovery and optimisation of a covalent ligand for TRIM25 and its application to targeted protein ubiquitination” (Chemical Science, 2025)
The other results are listed elsewhere or left out.

The chains behind the UniProt entries cited, without tags or fusion partners. Where a name states a change or a piece, a line headed by the entry shows the natural chain unless it says otherwise.
UniProt P40818: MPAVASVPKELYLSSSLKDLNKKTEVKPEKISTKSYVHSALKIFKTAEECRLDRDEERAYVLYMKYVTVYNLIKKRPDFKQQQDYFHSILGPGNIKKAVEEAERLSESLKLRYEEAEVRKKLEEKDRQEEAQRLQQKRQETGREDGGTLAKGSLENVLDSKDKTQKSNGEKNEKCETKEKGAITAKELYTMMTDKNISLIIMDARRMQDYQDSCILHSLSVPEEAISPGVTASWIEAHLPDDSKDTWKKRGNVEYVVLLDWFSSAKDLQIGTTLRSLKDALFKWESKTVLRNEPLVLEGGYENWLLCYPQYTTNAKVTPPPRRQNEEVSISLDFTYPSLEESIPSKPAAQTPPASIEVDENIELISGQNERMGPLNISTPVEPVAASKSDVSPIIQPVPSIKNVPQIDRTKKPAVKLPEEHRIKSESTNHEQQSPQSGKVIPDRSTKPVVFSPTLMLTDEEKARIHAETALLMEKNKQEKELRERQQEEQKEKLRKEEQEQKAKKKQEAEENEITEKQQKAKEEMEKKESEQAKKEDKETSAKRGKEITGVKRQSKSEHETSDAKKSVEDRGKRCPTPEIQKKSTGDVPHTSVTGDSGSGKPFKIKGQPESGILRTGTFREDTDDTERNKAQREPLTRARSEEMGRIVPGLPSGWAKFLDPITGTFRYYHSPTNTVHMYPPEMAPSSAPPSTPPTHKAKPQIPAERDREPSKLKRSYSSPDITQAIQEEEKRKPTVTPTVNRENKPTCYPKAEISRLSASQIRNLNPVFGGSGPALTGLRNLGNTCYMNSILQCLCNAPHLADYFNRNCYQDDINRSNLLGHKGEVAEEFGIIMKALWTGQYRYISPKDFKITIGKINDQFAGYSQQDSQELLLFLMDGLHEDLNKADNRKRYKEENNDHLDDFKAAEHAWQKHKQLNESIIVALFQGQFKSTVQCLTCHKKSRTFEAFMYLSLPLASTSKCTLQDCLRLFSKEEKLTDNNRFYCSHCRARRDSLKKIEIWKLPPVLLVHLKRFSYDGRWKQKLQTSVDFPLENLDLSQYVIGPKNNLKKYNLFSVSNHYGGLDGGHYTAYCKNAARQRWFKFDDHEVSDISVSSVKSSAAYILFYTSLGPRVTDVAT
UniProt Q9NYU2: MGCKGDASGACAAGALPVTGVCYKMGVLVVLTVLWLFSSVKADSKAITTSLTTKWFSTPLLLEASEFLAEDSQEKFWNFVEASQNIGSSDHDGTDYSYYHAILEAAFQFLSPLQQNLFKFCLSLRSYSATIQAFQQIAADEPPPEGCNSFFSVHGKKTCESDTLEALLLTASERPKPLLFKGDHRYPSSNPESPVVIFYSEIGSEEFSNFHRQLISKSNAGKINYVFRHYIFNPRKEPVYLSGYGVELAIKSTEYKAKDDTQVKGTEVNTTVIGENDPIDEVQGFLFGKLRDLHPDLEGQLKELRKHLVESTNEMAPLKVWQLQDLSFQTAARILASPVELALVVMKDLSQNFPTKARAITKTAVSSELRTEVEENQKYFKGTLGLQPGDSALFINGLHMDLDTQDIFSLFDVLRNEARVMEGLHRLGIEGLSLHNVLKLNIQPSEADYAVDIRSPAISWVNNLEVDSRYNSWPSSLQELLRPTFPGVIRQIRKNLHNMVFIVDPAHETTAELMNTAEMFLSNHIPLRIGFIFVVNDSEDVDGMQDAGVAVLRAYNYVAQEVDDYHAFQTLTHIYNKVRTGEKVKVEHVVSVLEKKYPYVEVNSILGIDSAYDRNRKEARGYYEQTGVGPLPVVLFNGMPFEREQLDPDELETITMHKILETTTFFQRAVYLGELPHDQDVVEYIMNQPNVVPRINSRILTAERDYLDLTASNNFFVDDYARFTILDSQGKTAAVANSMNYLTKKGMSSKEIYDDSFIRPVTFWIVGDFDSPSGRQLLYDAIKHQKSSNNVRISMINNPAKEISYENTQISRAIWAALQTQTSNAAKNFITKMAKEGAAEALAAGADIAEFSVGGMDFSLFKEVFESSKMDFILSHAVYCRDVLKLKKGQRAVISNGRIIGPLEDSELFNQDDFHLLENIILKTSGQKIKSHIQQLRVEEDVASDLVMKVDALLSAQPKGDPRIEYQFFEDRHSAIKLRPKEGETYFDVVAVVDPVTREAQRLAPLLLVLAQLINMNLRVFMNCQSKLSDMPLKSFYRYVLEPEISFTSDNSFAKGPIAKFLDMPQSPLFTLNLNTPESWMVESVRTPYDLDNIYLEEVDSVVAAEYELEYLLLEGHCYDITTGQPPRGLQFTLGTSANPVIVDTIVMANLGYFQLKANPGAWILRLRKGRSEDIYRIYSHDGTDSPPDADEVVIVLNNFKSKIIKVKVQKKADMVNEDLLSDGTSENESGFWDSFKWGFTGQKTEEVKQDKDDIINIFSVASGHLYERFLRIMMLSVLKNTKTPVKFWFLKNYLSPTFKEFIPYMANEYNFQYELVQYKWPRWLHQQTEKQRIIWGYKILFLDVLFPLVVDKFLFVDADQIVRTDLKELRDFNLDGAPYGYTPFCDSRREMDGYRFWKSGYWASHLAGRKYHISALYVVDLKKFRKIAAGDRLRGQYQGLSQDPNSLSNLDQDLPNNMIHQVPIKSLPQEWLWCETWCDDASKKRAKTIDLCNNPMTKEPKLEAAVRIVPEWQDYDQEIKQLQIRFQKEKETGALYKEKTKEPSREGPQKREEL
UniProt Q93009, whole entry, looked up: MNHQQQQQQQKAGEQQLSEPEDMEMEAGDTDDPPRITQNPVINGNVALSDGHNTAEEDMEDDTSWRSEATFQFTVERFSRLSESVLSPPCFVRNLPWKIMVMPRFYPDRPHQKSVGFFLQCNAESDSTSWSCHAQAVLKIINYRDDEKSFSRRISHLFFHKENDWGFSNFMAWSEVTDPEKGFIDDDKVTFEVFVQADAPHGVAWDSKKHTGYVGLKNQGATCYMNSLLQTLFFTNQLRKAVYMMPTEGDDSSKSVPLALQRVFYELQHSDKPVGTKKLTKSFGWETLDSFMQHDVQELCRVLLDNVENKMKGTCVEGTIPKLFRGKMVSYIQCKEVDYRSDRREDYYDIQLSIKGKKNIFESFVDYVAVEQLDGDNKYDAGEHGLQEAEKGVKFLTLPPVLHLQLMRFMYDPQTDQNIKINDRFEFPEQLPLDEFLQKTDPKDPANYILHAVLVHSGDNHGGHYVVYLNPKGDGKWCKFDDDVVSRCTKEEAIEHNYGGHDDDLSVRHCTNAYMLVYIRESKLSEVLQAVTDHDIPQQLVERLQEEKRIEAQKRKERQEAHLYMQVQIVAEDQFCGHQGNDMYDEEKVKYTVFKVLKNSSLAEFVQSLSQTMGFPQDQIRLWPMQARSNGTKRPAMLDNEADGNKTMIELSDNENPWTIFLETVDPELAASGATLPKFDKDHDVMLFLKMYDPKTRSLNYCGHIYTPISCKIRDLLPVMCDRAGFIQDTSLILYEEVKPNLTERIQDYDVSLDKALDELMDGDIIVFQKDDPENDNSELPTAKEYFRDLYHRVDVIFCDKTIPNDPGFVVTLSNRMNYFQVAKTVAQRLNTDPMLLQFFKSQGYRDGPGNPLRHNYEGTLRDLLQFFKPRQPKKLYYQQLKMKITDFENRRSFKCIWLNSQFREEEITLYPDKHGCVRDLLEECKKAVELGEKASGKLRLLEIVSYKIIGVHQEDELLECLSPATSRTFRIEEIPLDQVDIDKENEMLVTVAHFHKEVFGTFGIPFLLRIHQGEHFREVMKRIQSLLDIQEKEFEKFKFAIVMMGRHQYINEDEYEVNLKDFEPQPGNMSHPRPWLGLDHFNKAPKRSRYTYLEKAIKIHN
UniProt Q8TCY9: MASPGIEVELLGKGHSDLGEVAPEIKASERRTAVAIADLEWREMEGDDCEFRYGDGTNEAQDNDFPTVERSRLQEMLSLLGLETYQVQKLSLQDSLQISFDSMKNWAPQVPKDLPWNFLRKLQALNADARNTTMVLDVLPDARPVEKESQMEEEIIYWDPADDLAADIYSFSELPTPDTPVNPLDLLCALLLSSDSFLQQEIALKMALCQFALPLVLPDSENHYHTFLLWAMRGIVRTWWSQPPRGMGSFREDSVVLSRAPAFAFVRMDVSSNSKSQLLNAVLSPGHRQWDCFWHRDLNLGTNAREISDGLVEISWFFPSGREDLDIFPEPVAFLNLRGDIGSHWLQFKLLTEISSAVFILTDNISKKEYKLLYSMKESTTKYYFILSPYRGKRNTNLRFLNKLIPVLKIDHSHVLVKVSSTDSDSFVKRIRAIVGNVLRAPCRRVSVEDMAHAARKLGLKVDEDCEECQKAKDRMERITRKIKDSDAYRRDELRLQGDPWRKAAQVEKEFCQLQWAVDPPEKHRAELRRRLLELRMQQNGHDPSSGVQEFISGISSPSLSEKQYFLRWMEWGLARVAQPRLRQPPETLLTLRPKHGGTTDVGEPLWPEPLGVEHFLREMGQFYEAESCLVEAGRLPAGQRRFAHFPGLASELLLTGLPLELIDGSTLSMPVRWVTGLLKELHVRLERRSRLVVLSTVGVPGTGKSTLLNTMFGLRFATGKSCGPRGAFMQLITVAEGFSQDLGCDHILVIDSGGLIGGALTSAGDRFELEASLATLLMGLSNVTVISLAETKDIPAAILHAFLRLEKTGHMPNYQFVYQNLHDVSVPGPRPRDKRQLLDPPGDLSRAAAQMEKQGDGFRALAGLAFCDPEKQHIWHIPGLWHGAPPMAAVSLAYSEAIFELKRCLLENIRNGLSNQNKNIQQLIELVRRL
UniProt Q92900: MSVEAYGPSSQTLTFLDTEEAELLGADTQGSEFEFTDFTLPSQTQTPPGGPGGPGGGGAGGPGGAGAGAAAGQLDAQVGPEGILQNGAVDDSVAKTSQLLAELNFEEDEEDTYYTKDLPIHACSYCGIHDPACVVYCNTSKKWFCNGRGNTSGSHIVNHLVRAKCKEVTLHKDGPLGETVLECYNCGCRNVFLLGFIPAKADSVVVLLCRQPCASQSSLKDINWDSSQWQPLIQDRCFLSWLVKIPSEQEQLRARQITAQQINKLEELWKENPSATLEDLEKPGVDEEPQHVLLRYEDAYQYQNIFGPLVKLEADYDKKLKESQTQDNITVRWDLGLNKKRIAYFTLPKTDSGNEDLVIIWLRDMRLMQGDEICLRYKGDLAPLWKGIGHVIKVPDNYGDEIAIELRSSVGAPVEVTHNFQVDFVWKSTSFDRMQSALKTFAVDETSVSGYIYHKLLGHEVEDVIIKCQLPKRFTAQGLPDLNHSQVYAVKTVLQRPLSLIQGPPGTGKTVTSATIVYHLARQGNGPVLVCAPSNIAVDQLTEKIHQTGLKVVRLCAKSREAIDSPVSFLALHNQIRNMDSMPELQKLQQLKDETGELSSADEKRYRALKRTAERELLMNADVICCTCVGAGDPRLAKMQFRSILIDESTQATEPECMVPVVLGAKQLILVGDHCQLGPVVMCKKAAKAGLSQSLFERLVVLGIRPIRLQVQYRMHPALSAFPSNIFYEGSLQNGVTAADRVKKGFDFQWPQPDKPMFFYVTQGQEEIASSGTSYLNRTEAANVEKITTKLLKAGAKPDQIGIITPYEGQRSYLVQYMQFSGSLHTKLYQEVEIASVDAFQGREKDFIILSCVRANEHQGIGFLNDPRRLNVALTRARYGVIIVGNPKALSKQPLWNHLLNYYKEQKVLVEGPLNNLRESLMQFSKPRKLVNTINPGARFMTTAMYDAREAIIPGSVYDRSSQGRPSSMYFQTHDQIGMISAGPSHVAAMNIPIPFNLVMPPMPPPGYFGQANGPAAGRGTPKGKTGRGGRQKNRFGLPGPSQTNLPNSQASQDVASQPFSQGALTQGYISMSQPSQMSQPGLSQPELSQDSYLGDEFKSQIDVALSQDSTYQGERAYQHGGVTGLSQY
UniProt Q96RL1: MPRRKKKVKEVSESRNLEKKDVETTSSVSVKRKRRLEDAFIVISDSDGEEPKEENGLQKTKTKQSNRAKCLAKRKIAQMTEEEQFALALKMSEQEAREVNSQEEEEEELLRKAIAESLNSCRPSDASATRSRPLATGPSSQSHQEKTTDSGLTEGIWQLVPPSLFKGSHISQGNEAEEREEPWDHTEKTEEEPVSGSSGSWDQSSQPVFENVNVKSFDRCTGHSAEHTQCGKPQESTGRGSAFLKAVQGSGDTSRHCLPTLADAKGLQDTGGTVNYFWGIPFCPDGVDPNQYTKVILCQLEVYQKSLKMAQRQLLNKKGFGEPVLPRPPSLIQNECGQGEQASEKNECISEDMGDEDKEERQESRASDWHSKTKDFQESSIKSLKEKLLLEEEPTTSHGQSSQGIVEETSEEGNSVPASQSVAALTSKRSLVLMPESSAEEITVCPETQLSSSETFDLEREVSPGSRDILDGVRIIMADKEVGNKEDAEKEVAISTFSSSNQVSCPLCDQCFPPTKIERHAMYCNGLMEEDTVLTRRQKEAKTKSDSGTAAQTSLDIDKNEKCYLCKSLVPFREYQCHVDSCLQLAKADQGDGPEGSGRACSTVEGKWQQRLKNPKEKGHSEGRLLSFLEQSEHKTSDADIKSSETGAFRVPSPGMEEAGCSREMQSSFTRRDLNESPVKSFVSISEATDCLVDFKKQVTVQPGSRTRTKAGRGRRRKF

Compound: Cc1cc(ccc1-c1ccccc1)C(=O)N1CCCN(CC1)C(=O)CCl [compound 10]
Assay: probe-labelled cysteine peptide fold change vs DMSO (competition) (log2 fold change); higher = less target engagement (more negative = stronger competition)
Settings: THP-1, incubation time: 4 h
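Also: competitive profiling in live THP-1 cells: cysteine peptides tagged with an iodoacetamide desthiobiotin (IA-DTB) probe, intensity after compound treatment relative to DMSO-treated cells.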

Target | probe-labelled cysteine peptide fold change (10 µM) | probe-labelled cysteine peptide fold change (50 µM)
UNK_Q9C0B0_696_ASAAGAECELAR (UniProt Q9C0B0) | -0.172 | -0.212
UQCRH_P07919_67_SHTEEDCTEELFDFLHAR (UniProt P07919) | -0.361 | -0.247
UHRF1_Q96T88_316_VCACHLCGGR (UniProt Q96T88) | -0.0214 | -0.319
USP8_P40818_50_TAEECR (UniProt P40818) | 0.284 | 0.395
UHRF1_Q96T88_410_ECTIVPSNHYGPIPGIPVGTMWR (UniProt Q96T88) | 0.138 | 0.315
USP3_Q9Y6I4_49_SPWVCLTCSSVHCGR (UniProt Q9Y6I4) | -0.0125 | -0.103
UHRF2_Q96PU4_14_TCTIEDVSR (UniProt Q96PU4) | 0.0523 | 0.0481
USP47_Q96K76_1309_VSTLNVWPLYICDDGAVIFYR (UniProt Q96K76) | 0.315 | -0.0757
UPF2_Q9HAU5_226_ISDVNCAVHLCSLFHQR (UniProt Q9HAU5) | 0.072 | 0.108
UCK2_Q9BZX2_241_RQTNGCLNGYTPSR (UniProt Q9BZX2) | -0.398 | -0.393
USP8_P40818_985+988_FYCSHCR (UniProt P40818) | 0.101 | -0.313
UGGT1_Q9NYU2_1024_VFMNCQSK (UniProt Q9NYU2) | -0.42 | 0.417
UFL1_O94874_641_SIEDFISCLDSAAEACDIMVK (UniProt O94874) | 0.245 | 0.00277
USP7_Q93009_315_GTCVEGTIPK (UniProt Q93009) | -0.214 | -0.68
UCHL5_Q9Y5K5_88+100_QVINNACATQAIVSVLLNCTHQDVHLGETLSEFK (UniProt Q9Y5K5) | 0.213 | 0.0364
URGCP_Q8TCY9_292_QWDCFWHR (UniProt Q8TCY9) | 0.0356 | -0.0205
USP14_P54578_277_ENQLQLSCFINQEVK (UniProt P54578) | -0.0297 | -0.0631
URB1_O60287_78_ISVECVEIFQLLSGEK (UniProt O60287) | 0.0336 | 0.776
USP10_Q14694_94_TPSYSISSTLNPQAPEFILGCTASK (UniProt Q14694) | -0.623 | -0.194
USP38_Q8NB14_38_VVESAEHWLDEAQCEAMFDLTTR (UniProt Q8NB14) | -0.318 | -0.215
UFC1_Q9Y3C8_69_CWYIHDLLK (UniProt Q9Y3C8) | 0.16 | 0.0466
UNC45A_Q9H3U1_118_CVSLEPK (UniProt Q9H3U1) | 0.296 | -0.144

Target | probe-labelled cysteine peptide fold change (10 µM) | probe-labelled cysteine peptide fold change (50 µM)
USP15_Q9Y4E8_570_TEDTEHVIIPVCLR (UniProt Q9Y4E8) | 0.0687 | 0.0155
UPF1_Q92900_675+683_QLILVGDHCQLGPVVMCK (UniProt Q92900) | -0.248 | -0.549
UPF2_Q9HAU5_578_LIVDAFLQQLPNCVNR (UniProt Q9HAU5) | -0.0297 | -0.14
UPF3A_Q9H1J1_315_QESCAPGAVVK (UniProt Q9H1J1) | -0.016 | 0.245
USP24_Q9UPU5_679_LVTGSLIACHR (UniProt Q9UPU5) | -0.0317 | 0.0717
UNC13D_Q70J99_992_DLHPLFDETFEFLVPAEPCRK (UniProt Q70J99) | 0.0124 | -0.821
UROD_P06132_308_TVTLQGNLDPCALYASEEEIGQLVK (UniProt P06132) | -0.0737 | 0.0622
UPF1_Q92900_237_CFLSWLVK (UniProt Q92900) | -0.00664 | -0.0136
USP34_Q70CQ2_1330_KGEGVQLPASCLPPPQK (UniProt Q70CQ2) | -0.079 | -0.0424
UHRF1BP1_Q6BDS2_494_KPSTLLSCSR (UniProt Q6BDS2) | 0.0804 | 0.0109
USP8_P40818_809_NCYQDDINR (UniProt P40818) | -0.199 | -1.27
UCHL5_Q9Y5K5_100_QVINNACATQAIVSVLLNCTHQDVHLGETLSEFK (UniProt Q9Y5K5) | 0.114 | -0.0951
USP6_P35125_1185_SGTSCPSSK (UniProt P35125) | -0.0811 | -0.0649
USP7_Q93009_721_DLLPVMCDR (UniProt Q93009) | 0.207 | 0.24
UBR7_Q8N806_82_QALYACSTCTPEGEEPAGICLACSYECHGSHK (UniProt Q8N806) | 0.15 | -0.825
USP15_Q9Y4E8_633_ISTETEETEGSLHCCK (UniProt Q9Y4E8) | -0.0182 | -0.248
USP8_P40818_988_FYCSHCR (UniProt P40818) | 0.125 | 0.0448
USP16_Q9Y5T5_24_TVPIDDSSETLEPVCR (UniProt Q9Y5T5) | -0.224 | -0.204
UIMC1_Q96RL1_298_VILCQLEVYQK (UniProt Q96RL1) | -0.00784 | 0.0053
UGGT1_Q9NYU2_159_TCESDTLEALLLTASERPK (UniProt Q9NYU2) | 0.0351 | 0.301
UBTD2_Q8WUN7_122_YQLPVYCLAPPINMIEEK (UniProt Q8WUN7) | 0.0555 | -0.198

Laid out differently: entries from further up

| Target | probe-labelled cysteine peptide fold change (10 µM) | probe-labelled cysteine peptide fold change (50 µM) |
| --- | --- | --- |
| URGCP_Q8TCY9_292_QWDCFWHR (UniProt Q8TCY9) | 0.0356 | -0.0205 |
| USP8_P40818_988_FYCSHCR (UniProt P40818) | 0.125 | 0.0448 |
